Results from PMC6401487.

Chains of the proteins cited; added tags and fusions are not shown. Lines headed by an entry give the natural chain unless they say otherwise; changes in a name come on top.
UniProt Q5JIK0: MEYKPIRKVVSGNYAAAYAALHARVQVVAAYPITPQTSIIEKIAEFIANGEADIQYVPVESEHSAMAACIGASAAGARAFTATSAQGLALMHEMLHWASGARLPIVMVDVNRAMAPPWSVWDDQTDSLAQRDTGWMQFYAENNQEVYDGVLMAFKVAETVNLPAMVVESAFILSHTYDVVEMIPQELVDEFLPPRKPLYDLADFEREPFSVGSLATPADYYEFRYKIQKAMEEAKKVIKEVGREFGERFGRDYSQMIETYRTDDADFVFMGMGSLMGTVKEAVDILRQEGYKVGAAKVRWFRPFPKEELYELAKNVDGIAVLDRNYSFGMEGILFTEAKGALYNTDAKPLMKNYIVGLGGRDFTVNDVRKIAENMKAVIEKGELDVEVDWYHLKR
UniProt Q5JHW0: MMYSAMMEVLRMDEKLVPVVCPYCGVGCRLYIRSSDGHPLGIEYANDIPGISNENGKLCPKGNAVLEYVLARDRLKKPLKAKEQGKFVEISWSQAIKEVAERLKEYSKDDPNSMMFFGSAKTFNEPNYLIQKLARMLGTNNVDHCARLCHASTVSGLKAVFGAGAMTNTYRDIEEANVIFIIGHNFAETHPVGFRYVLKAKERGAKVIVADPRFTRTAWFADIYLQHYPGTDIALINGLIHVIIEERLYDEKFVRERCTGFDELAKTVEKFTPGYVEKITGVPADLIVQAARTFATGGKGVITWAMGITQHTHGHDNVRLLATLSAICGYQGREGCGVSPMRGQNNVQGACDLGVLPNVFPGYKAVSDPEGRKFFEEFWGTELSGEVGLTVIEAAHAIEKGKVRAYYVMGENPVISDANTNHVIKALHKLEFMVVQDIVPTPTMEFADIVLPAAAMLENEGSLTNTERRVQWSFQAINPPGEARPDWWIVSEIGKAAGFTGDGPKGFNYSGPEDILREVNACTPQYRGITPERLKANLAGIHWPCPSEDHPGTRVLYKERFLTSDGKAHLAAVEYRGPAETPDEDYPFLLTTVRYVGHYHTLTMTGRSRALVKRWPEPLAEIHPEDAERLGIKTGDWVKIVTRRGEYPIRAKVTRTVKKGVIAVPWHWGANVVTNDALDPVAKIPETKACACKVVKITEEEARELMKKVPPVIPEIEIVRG
UniProt Q5JE61: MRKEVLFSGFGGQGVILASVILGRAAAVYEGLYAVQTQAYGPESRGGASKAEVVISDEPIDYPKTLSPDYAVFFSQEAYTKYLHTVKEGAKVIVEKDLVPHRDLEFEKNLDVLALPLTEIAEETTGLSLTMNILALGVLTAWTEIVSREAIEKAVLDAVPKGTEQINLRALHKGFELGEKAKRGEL
UniProt Q5JIJ6: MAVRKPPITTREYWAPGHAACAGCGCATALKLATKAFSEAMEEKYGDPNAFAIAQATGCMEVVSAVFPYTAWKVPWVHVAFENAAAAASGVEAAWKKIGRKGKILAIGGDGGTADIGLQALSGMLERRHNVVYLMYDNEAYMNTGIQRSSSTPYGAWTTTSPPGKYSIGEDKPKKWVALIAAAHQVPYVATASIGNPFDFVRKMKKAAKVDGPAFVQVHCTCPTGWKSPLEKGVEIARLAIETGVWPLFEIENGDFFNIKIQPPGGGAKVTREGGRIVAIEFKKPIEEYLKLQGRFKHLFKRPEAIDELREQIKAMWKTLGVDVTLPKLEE

Columns and labels:
[1] = biological target: T1, Ferredoxin 1 (Fd-1), encoded by TK1694, with C-terminal HA-His6 extension (Thermococcus kodakarensis) (UniProt Q977X3); assay: affinity purification with mass spectrometry; C-terminally HA-His6-tagged Fd made from its own genomic locus; clarified lysates of cultures grown with S0 or without S0 (pyruvate); Ni2+-charged chelating column at 4 °C in 25 mM Tris-HCl pH 8.0, 500 mM NaCl, 10% glycerol; linear imidazole gradient; pooled Fd-containing fractions analysed by MuDPIT; proteins also found in equivalent fractions of parental strain TS559 subtracted
T1 sequence: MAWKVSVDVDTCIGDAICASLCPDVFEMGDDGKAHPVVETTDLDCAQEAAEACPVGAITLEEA

[2] = biological target: T2, Ferredoxin 3 (Fd-3), encoded by TK2012, with C-terminal HA-His6 extension (Thermococcus kodakarensis) (UniProt Q5JDE8); assay: as above
T2 sequence: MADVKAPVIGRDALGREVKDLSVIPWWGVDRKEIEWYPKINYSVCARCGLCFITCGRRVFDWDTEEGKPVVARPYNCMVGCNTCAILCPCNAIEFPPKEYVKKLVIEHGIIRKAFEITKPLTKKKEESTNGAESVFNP

| binding [1] | binding [2] | Substance |
| --- | --- | --- |
| binds |  | 2-Oxoisovalerate:ferredoxin oxidoreductase, α subunit (from UniProt Q5JIK0) |
|  | binds | Formate dehydrogenase, α subunit (from UniProt Q5JHW0) |
|  | no binding | Oxoacid:ferredoxin oxidoreductases, γ subunit (from UniProt Q5JE61) |
| binds | binds | Pyruvate:ferredoxin oxidoreductase, β subunit (from UniProt Q5JIJ6) |

Results are given in words; binding and its absence hold for the method and conditions named. Binding seen in cells or lysates may run through a third protein. These calls come from enrichment with a bait or labelling near it, and not all partners need be listed. For some assays here: No binding means not detected with the bait. Tags and fused reporters may be left off the sequences shown.
